The campaign covered roughly 350,000 compounds. About 9,900 (2.8%) were called active. Only results without a clear call are listed here; the source files them as inconclusive. Calls come from the whole dose curve; as a rule, active = well fitted activation curve with a large enough effect; inconclusive = small, poorly fitted or top-dose-only effect; inactive = no such curve, though single readings can be large or run the other way. Some tests of the compounds listed are not included; inactive here does not mean inactive elsewhere.
Experiment: A quantitative high throughput screen for small molecules that induce DNA re-replication in MCF 10a normal breast cells. Note: nearly all actives have a fitted effect of over 50% in size.
Conditions: MCF 10A DNA re-replication, Hoechst nuclear intensity, 48 h
Potency is the fitted concentration of half-maximal effect.

Row | SMILES | Potency
1 | O=C(NCC1(N2CCCCC2)CCCCC1)c1cccc(Cl)c1 | inconclusive: 16.4 µM
